Assay: Bottom-gate top contact OFET device characterization
Protocol: Bottom-gate top contact OFETs were fabricated using compounds of the present teachings as the semiconductor layer. Prime grade n-doped silicon wafers (100) having 300 nm of thermally grown oxide (Process Specialties Inc.) were used as device substrates. These were rinsed with water, methanol, and acetone before film deposition. Trimethylsilyl functionalization of the Si/SiO2 surface was carried out by exposing the silicon wafers to hexamethyldisilazane (HMDS) vapor at room temperature in a closed container under nitrogen overnight. Thin films of mono-bromo mono-cyano perylenes were prepared by vapor deposition and spin-coating, and thin films of the dimeric perylenes were prepared by spin coating only. Different solvents and solvent mixtures can be used for semiconductor film deposition. The gate region was accessed by an ohmic contact to the Si substrate, and the gold source and drain contacts were prepared by vapor deposition through a shadow mask onto the semiconductor layer.
All electrical measurements were performed in ambient atmosphere. To allow comparison with other organic FETs, mobilities (μ) were calculated by standard field effect transistor equations. In traditional metal-insulator-semiconductor FETs (MISFETs), there is typically a linear and saturated regime in the IDS vs VDS curves at different VG (where IDS is the source-drain saturation current, VDS is the potential between the source and drain, and VG is the gate voltage). At large VDS, the current saturates and is given by: (IDS)sat=(WCi/2L)μ(VG−Vt)^2 (1) where L and W are the device channel length and width, respectively, Ci is the capacitance of the oxide insulator (˜10 nF/cm^2 for ˜300 nm SiO2), and Vt is the threshold voltage. Mobilities (μ) were calculated in the saturation regime by rearranging equation (1): μsat=(2IDSL)/[WCi(VG−Vt)^2] (2) The threshold voltage (Vt) can be estimated as the X-axis intercept of the linear section of the plot of VG versus (IDS)^1/2 (at VSD=−100 V).
It was observed that the dimeric perylenes tested provided solutions with an unexpectedly wide range of viscosity, which facilitated the device fabrication process.

[1] = spin-coating from chloroform/dichlorobenzene (98:2, w/w) solution, about 8 mg/mL, ambient atmosphere (Table 3)
[2] = film by vacuum deposition, ambient atmosphere (Table 2a)
[3] = film by vacuum deposition, tested in ambient atmosphere (Table 2a)
[4] = spin-coating from chloroform solution, about 8 mg/mL, ambient atmosphere (Table 2b)

SMILES | Current On/Off Ratio [1] | Mobility [1] [cm^2/Vs] | VTH [1] [V] | Current On/Off Ratio [2] | Current On/Off Ratio (0 V) [2] | Mobility [3] [cm^2/Vs] | Current On/Off Ratio [4] | Current On/Off Ratio (0 V) [4] | Mobility [4] [cm^2/Vs]
CCCCC(C)N1C(=O)c2ccc3c4c(-c5ccc(-c6ccc(-c7cc8c9c(ccc%10c%11c(C#N)cc%12c%13c(ccc(c7c9%10)c%13%11)C(=O)N(C(C)CCCC)C%12=O)C(=O)N(C(C)CCCC)C8=O)s6)s5)cc5c6c(ccc(c7c(C#N)cc(c2c37)C1=O)c64)C(=O)N(C(C)CCCC)C5=O (stereo not drawn) [BPDI(1MP)-BT, 5,5′-bis-[N,N′-bis(1-methylpentyl)-1-cyanoperylene-3,4:9,10-bis(dicarboxiimide)-7-yl]-2,2′-bithiophene] | 3.3E+04 | 2.6E−04 | 0 | – | – | – | – | – | –
CCCCC(CC)CN1C(=O)c2ccc3c4c(-c5ccc(-c6ccc(-c7cc8c9c(ccc%10c%11c(C#N)cc%12c%13c(ccc(c7c9%10)c%13%11)C(=O)N(CC(CC)CCCC)C%12=O)C(=O)N(CC(CC)CCCC)C8=O)s6)s5)cc5c6c(ccc(c7c(C#N)cc(c2c37)C1=O)c64)C(=O)N(CC(CC)CCCC)C5=O (stereo not drawn) [BPDI(2EH)-BT, 5,5′-bis-[N,N′-bis(2-ethylhexyl)-1-cyanoperylene-3,4:9,10-bis(dicarboxiimide)-7-yl]-2,2′-bithiophene] | 2.4E+06 | 0.05 | −15 | – | – | – | – | – | –
CCCCCCCCN1C(=O)c2ccc3c4c(-c5ccc(-c6ccc(-c7cc8c9c(ccc%10c%11c(C#N)cc%12c%13c(ccc(c7c9%10)c%13%11)C(=O)N(CCCCCCCC)C%12=O)C(=O)N(CCCCCCCC)C8=O)s6)s5)cc5c6c(ccc(c7c(C#N)cc(c2c37)C1=O)c64)C(=O)N(CCCCCCCC)C5=O [BPDI(8)-BT, 5,5′-bis-[N,N′-bisoctyl-1-cyanoperylene-3,4:9,10-bis(dicarboxiimide)-7-yl]-2,2′-bithiophene] | 2.4E+04 | 8.7E−03 | −5 | – | – | – | – | – | –
CCCCC(C)N1C(=O)c2ccc3c4c(C#N)cc5c6c(ccc(c7c(Br)cc(c2c37)C1=O)c64)C(=O)N(C(C)CCCC)C5=O (stereo not drawn) [PDI(1MP)BrCN, N,N′-bis(1-methylpentyl)-1-bromo-7-cyanoperylene-3,4:9,10-bis(dicarboxiimide)] | – | – | – | 1.7E+04 | 1.7E+04 | 8.78E−04 | 1.1E+04 | 1.1E+04 | 5.13E−03
CCCCC(CC)CN1C(=O)c2ccc3c4c(C#N)cc5c6c(ccc(c7c(Br)cc(c2c37)C1=O)c64)C(=O)N(CC(CC)CCCC)C5=O (stereo not drawn) [PDI(2EH)BrCN, N,N′-bis(2-ethylhexyl)-1-bromo-7-cyanoperylene-3,4:9,10-bis(dicarboxiimide)] | – | – | – | 7.6E+03 | 6.7E+03 | 3.03E−03 | 1.3E+04 | 1.3E+04 | 3.90E−04
CCCCCCCCN1C(=O)c2ccc3c4c(C#N)cc5c6c(ccc(c7c(Br)cc(c2c37)C1=O)c64)C(=O)N(CCCCCCCC)C5=O [PDI(8)BrCN, N,N′-bisoctyl-1-bromo-7-cyanoperylene-3,4:9,10-bis(dicarboxiimide)] | – | – | – | 1.8E+05 | 1.6E+05 | 1.78E−02 | 2.8E+03 | 2.8E+03 | 1.10E−04

Source: patent publication US8569501B2, “Semiconductor materials and methods of preparation and use thereof” (BASF SE, priority 2008, dated 2013)
